In PubChem BioAssay one finds SMN2 luciferase ratio, SMN1 luciferase ratio and normalised LDH release data, which are given here for 39 compounds.

Values joined by “and” are separate entries in the source; they are usually repeats but may differ in a detail not shown here. Equal entries are not always repeated. Some of the results follow. The main result of the screen is listed elsewhere. These columns were measured beside it and carry no call. For some assays here: Compounds called inactive in the main read-out are mostly missing here. Bridge positions count the residues as written; N and C are the ends. Square brackets hold non-standard residues; d marks the D form. Peptide text beside a SMILES is read from it. * marks the point of attachment. Octanoyl(6-Me) = CCC(C)CCCCC(=O)*; Dab = NCC[CH](N)C(=O)O

The nature of the first test: enhancers of SMN2 over SMN1 splicing, cell-based, SMN2/SMN1 luciferase reporters (AID 1598). Conditions: SMN2 vs SMN1 luciferase splicing reporter cells, at 10 µM; SMN1 luciferase ratio: measured here: SMN1 luciferase reporter average; SMN2 luciferase ratio: measured here: SMN2 luciferase reporter average, stronger effect = higher value. In general terms: Reporter assays use an easily measured gene product as a stand-in for the process of interest.
As to `OCc1ccccc1O`, the SMN2 luciferase ratio was 1 and the SMN1 luciferase ratio was 0.95.
With `OCc1cc2c(cn1)[nH]c1ccccc12`, the SMN2 luciferase ratio worked out at 0.83 and the SMN1 luciferase ratio was found to be 0.94.
As to `CN[C@@H]1[C@H](O)[C@H](NC)[C@H]2O[C@@]3(O)C(=O)C[C@@H](C)O[C@H]3OC2[C@H]1O` (some centres undefined), the SMN1 luciferase ratio is 0.79 and the SMN2 luciferase ratio was 0.86.
For `CCCC(=O)Nc1ncnc2c1ncn2C1O[C@@H]2COP(=O)(O)O[C@H]2[C@H]1OC(=O)CCC` (some centres undefined), the SMN1 luciferase ratio stood at 1.05 and the SMN2 luciferase ratio was found to be 0.96.
On the same counts, the results for `CS(=O)(=O)Nc1ccc([N+](=O)[O-])cc1Oc1ccccc1` are 0.91 and 0.9.
Taken in the same sequence, the figures for `OC[C@H]1O[C@@H](O[C@@H]2[C@@H](CO)O[C@](O)(CO)[C@H]2O)[C@H](O)[C@@H](O)[C@H]1O` were 0.77 and 0.84.
With `CC[C@H]1OC(=O)[C@H](C)[C@@H](O[C@H]2C[C@@](C)(OC)[C@@H](O)[C@H](C)O2)[C@H](C)[C@@H](O[C@@H]2O[C@H](C)C[C@H](N(C)C)[C@H]2O)[C@](C)(O)C[C@@H](C)/C(=N\OCOCCOC)[C@H](C)[C@@H](O)[C@]1(C)O`, the SMN2 luciferase ratio came to 0.95 and the SMN1 luciferase ratio came to 0.9.
Consider `CCN(CC)CCOC(=O)c1ccc(N)cc1`, for which the SMN1 luciferase ratio came out at 0.91 and the SMN2 luciferase ratio was determined as 0.96.
Turning to `C=C[C@H]1CN2CC[C@H]1C[C@@H]2[C@@H](O)c1ccnc2ccc(OC)cc12`, the SMN1 luciferase ratio was 0.85 and the SMN2 luciferase ratio stood at 0.94.
`CC1(C)O[C@@H]2CC3C4C[C@H](F)C5=CC(=O)CC[C@]5(C)C4[C@@H](O)C[C@]3(C)[C@]2(C(=O)CO)O1` (some centres undefined): the SMN2 luciferase ratio is 0.92 and the SMN1 luciferase ratio is 0.84.

The next test can be described thus: protection against mutant huntingtin cytotoxicity, PC12 cells, LDH release (AID 1610). Conditions: PC12 mutant huntingtin toxicity, final LDH at 4 uM, stronger effect = lower value.
Compound `NC(N)=NC(=O)c1nc(Cl)c(N)nc1N` gave a normalised LDH release of 0.801.
Compound `CCCCC1C(=O)N(c2ccccc2)N(c2ccccc2)C1=O` showed a normalised LDH release of 0.72.
`C[C@@H]1CC2C3C[C@H](F)C4=CC(=O)C=CC4(C)C3(F)[C@@H](O)CC2(C)C1C(=O)COC(=O)C(C)(C)C` (some centres undefined) returned a normalised LDH release of 0.709.
In turn, `NS(=O)(=O)c1cc2c(cc1C(F)(F)F)NCNS2(=O)=O` came in with a normalised LDH release of 1.4.
The same measure, in the same setting: the figure for `CN1CCC(=C2c3ccccc3Sc3ccccc32)CC1` is 1.02; for `Cc1ccccc1C(OCCN(C)C)c1ccccc1` (centres undefined) it is 0.993; for `N[C@H](C(=O)O)[C@@H]1CC(Cl)=NO1` it is 1.25.
`NCCc1ccc(O)c(O)c1` yielded a normalised LDH release of 1.14.
`Nc1ccc(C(=O)O)cc1` yielded a normalised LDH release of 0.372.
As for `CC(=O)N[C@@H]1[C@@H](O)[C@H](O)[C@@H](CO)O[C@H]1O`, the normalised LDH release was determined as 0.925.
The compound `CC(C)Cn1c(=O)n(C)c(=O)c2[nH]cnc21` returned a normalised LDH release of 0.88.
The compound `C[C@]12CCC3c4ccc(O)cc4CCC3C1C[C@@H](O)[C@@H]2O` (some centres undefined) returned a normalised LDH release of 0.768.
On the same count and under the same terms, then `CC1(C)S[C@@H]2[C@H](NC(=O)Cc3ccccc3)C(=O)N2[C@H]1C(=O)O`, with 0.768; and `O=C(Cn1ccnc1[N+](=O)[O-])NCCO`, with 0.796.
Still for that read-out and setting: the figure for `C[C@@H]1CC2C3CCC4=CC(=O)C=C[C@]4(C)[C@@]3(F)[C@@H](O)C[C@]2(C)[C@@]1(O)C(=O)COP(=O)(O)O` (some centres undefined) is 0.96; for `O=C(O)c1cccnc1C(=O)O` it is 0.843; for `Nc1nc2c(ncn2COCCO)c(=O)[nH]1` it is 1.07.
Regarding `CC[C@H]1OC(=O)[C@H](C)[C@@H](O[C@H]2C[C@@](C)(OC)[C@@H](O)[C@H](C)O2)[C@H](C)[C@@H](O[C@@H]2O[C@H](C)C[C@H](N(C)C)[C@H]2O)[C@](C)(O)C[C@@H](C)C(=O)[C@H](C)[C@@H](O)[C@]1(C)O`, the normalised LDH release is 0.914 and 0.789 and 1.03.
As for `Nc1ncnc2c1ncn2C1OC(CO)[C@H](O)C1O` (some centres undefined), the normalised LDH release was determined as 0.867.
`Cc1ccsc1/C=C/C1=NCCCN1C` returned a normalised LDH release of 0.52.
The same measure, in the same setting: the figure for `NCCNC(=O)c1ccc(Cl)cc1` is 1.1; for `CCn1nc(C(=O)O)c(=O)c2cc3c(cc21)OCO3` it is 0.673.
`CC1CC2C3CCC4=CC(=O)C=CC4(C)[C@@]3(F)C(O)CC2(C)[C@@]1(O)C(=O)CO` (some centres undefined) registered a normalised LDH release of 0.381.
`CCC[C@@H]1C[C@@H](C(=O)N[C@H]([C@H]2O[C@H](SC)[C@H](O)[C@@H](O)[C@H]2O)[C@H](C)O)N(C)C1` showed a normalised LDH release of 1.46.
Same read-out and setting: then `CCC(C)CCCCC(=O)NC(CCN)C(=O)NC(C(=O)NC(CCN)C(=O)NC1CCNC(=O)C(C(C)O)NC(=O)C(CCN)NC(=O)C(CCN)NC(=O)C(CC(C)C)NC(=O)C(Cc2ccccc2)NC(=O)C(CCN)NC1=O)C(C)O` (centres undefined) ({Octanoyl(6-Me)}-[Dab]T[Dab][Dab][Dab]FL[Dab][Dab]T; lactam 4-C; configuration not given here), with 0.915; and `COc1ccc(/C=C/c2cc(O)cc(O[C@@H]3O[C@H](CO)[C@@H](O)[C@H](O)[C@H]3O)c2)cc1O`, with 1.06; and `C1N2CN3CN1CN(C2)C3`, with 1.12.
For the compound `CN(C)CCOC(c1ccccc1)c1ccccc1`, the normalised LDH release came to 0.652.
Take `Cc1cc(=O)[nH]c(=S)[nH]1`: the normalised LDH release was 0.513.
`OCc1ccccc1O`: the normalised LDH release was 1.04.
For the compound `OCc1cc2c(cn1)[nH]c1ccccc12`, the normalised LDH release is 0.935.
`CN[C@@H]1[C@H](O)[C@H](NC)[C@H]2O[C@@]3(O)C(=O)C[C@@H](C)O[C@H]3OC2[C@H]1O` (some centres undefined): the normalised LDH release turned out to be 1.1.
For the compound `CCCC(=O)Nc1ncnc2c1ncn2C1O[C@@H]2COP(=O)(O)O[C@H]2[C@H]1OC(=O)CCC` (some centres undefined), the normalised LDH release is 1.01.
On the same count and under the same terms, the figure for `CS(=O)(=O)Nc1ccc([N+](=O)[O-])cc1Oc1ccccc1` is 1.01; for `OC[C@H]1O[C@@H](O[C@@H]2[C@@H](CO)O[C@](O)(CO)[C@H]2O)[C@H](O)[C@@H](O)[C@H]1O` it is 0.857; for `CC[C@H]1OC(=O)[C@H](C)[C@@H](O[C@H]2C[C@@](C)(OC)[C@@H](O)[C@H](C)O2)[C@H](C)[C@@H](O[C@@H]2O[C@H](C)C[C@H](N(C)C)[C@H]2O)[C@](C)(O)C[C@@H](C)/C(=N\OCOCCOC)[C@H](C)[C@@H](O)[C@]1(C)O` it is 0.902.
In the case of `CCN(CC)CCOC(=O)c1ccc(N)cc1`, the normalised LDH release was 0.871.
`C=C[C@H]1CN2CC[C@H]1C[C@@H]2[C@@H](O)c1ccnc2ccc(OC)cc12` returned a normalised LDH release of 0.421.
Compound `CC1(C)O[C@@H]2CC3C4C[C@H](F)C5=CC(=O)CC[C@]5(C)C4[C@@H](O)C[C@]3(C)[C@]2(C(=O)CO)O1` (some centres undefined) gave a normalised LDH release of 0.709.
